Data published in the supplement of paper PMC10849652.
This is one part of the list.

Protein sequences, listed by entry. Tags and fused reporters are not part of them. Lines headed by an entry give the natural chain unless they say otherwise; changes in a name come on top.
UniProt Q9NPQ8: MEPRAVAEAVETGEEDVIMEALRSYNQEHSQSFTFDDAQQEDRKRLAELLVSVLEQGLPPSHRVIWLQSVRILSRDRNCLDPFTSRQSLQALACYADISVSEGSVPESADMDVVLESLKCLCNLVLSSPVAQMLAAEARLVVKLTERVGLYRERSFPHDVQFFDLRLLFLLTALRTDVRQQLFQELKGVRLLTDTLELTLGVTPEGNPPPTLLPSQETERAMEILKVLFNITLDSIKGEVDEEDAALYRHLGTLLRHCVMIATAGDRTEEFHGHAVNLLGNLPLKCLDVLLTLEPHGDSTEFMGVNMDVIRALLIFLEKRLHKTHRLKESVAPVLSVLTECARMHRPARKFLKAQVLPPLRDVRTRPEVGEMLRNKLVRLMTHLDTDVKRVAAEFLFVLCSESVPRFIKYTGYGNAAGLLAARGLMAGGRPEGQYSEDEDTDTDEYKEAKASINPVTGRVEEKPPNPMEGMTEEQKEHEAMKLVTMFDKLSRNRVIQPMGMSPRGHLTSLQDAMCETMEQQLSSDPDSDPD
UniProt P0C7M4: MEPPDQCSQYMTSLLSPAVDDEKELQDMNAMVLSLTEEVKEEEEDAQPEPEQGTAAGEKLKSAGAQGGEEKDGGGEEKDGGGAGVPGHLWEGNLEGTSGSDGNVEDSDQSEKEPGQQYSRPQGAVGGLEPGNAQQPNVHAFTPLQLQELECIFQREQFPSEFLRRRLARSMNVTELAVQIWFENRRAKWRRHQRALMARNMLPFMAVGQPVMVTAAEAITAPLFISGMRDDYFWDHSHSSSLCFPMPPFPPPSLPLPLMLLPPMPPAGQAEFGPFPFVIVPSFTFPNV
UniProt Q5TA31: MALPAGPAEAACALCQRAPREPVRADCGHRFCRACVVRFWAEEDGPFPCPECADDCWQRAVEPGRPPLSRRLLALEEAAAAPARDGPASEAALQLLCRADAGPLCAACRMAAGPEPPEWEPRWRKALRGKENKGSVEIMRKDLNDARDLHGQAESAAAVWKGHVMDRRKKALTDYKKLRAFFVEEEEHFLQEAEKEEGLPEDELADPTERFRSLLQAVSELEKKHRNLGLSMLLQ
UniProt P13489: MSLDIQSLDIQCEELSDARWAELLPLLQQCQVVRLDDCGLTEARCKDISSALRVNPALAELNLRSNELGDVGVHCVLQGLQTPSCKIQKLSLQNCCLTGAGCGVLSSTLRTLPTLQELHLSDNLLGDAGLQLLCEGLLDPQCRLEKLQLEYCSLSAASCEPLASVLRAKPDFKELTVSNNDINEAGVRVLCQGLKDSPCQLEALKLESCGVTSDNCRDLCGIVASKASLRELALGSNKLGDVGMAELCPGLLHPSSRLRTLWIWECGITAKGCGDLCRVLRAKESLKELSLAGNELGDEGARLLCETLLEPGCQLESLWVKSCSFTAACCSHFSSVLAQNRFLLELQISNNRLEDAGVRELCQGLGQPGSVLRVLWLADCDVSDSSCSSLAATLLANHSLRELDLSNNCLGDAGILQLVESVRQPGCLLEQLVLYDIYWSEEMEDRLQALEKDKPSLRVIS
UniProt P10155: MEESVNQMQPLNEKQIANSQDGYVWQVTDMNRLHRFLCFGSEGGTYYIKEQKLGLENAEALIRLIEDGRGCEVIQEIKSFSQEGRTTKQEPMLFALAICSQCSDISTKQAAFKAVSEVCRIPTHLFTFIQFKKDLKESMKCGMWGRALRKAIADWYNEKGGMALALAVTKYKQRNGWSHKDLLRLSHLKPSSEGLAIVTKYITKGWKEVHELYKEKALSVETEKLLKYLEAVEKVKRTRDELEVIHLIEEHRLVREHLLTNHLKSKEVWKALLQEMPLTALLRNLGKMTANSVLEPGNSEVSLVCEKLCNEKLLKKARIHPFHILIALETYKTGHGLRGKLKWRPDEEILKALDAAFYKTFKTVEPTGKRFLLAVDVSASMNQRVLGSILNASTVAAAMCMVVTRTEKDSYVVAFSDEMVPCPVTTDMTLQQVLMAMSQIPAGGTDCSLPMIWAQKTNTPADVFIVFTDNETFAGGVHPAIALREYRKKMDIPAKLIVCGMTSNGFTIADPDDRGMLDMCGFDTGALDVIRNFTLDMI
UniProt Q7L0Q8: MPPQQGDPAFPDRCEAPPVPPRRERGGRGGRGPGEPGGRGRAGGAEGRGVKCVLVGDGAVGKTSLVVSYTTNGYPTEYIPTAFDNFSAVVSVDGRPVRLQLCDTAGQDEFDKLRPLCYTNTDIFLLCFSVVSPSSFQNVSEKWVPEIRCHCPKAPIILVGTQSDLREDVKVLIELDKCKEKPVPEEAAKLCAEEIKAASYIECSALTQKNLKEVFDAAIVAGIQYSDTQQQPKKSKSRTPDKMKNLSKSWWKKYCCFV
UniProt Q4ADV7: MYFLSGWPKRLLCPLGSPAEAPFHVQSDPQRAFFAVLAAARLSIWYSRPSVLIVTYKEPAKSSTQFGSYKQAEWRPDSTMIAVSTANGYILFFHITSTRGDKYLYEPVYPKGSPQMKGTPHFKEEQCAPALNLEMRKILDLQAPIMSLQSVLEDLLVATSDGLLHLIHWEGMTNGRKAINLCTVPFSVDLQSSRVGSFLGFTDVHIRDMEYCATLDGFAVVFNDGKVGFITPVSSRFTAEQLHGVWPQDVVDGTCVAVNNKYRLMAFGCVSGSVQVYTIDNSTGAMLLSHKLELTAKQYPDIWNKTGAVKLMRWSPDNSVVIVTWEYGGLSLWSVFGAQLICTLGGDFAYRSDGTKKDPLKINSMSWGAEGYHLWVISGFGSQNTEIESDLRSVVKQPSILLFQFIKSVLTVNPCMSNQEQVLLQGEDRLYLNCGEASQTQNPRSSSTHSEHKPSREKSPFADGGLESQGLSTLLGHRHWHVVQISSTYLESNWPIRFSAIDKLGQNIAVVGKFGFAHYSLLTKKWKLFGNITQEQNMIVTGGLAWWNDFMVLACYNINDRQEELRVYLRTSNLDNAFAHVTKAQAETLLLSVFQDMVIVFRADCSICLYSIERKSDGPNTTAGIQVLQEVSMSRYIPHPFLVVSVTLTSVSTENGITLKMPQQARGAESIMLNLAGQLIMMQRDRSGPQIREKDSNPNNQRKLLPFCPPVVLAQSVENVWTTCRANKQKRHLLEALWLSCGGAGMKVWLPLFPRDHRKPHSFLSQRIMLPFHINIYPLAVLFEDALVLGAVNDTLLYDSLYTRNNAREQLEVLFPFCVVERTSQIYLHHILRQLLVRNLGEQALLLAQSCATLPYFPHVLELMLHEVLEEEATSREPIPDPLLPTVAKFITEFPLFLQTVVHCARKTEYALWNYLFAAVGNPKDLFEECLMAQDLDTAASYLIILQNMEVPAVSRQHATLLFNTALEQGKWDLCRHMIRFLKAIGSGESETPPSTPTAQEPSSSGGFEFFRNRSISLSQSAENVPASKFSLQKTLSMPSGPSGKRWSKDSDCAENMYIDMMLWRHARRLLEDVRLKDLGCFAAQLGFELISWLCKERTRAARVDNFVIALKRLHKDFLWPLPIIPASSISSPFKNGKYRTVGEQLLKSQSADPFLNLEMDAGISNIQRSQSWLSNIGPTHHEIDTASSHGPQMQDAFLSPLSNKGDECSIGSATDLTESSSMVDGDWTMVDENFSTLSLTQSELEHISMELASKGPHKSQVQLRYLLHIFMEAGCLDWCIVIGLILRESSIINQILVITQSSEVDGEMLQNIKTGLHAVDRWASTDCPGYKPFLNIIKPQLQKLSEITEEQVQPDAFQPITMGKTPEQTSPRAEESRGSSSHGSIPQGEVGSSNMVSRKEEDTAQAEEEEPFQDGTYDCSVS
UniProt Q8TA86: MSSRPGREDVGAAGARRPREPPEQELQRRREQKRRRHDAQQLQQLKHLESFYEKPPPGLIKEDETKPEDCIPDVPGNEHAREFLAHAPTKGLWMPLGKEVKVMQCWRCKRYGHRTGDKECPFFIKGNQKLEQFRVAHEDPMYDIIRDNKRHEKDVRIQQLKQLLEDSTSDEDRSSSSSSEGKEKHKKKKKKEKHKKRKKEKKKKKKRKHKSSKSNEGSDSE
UniProt Q5XPI4: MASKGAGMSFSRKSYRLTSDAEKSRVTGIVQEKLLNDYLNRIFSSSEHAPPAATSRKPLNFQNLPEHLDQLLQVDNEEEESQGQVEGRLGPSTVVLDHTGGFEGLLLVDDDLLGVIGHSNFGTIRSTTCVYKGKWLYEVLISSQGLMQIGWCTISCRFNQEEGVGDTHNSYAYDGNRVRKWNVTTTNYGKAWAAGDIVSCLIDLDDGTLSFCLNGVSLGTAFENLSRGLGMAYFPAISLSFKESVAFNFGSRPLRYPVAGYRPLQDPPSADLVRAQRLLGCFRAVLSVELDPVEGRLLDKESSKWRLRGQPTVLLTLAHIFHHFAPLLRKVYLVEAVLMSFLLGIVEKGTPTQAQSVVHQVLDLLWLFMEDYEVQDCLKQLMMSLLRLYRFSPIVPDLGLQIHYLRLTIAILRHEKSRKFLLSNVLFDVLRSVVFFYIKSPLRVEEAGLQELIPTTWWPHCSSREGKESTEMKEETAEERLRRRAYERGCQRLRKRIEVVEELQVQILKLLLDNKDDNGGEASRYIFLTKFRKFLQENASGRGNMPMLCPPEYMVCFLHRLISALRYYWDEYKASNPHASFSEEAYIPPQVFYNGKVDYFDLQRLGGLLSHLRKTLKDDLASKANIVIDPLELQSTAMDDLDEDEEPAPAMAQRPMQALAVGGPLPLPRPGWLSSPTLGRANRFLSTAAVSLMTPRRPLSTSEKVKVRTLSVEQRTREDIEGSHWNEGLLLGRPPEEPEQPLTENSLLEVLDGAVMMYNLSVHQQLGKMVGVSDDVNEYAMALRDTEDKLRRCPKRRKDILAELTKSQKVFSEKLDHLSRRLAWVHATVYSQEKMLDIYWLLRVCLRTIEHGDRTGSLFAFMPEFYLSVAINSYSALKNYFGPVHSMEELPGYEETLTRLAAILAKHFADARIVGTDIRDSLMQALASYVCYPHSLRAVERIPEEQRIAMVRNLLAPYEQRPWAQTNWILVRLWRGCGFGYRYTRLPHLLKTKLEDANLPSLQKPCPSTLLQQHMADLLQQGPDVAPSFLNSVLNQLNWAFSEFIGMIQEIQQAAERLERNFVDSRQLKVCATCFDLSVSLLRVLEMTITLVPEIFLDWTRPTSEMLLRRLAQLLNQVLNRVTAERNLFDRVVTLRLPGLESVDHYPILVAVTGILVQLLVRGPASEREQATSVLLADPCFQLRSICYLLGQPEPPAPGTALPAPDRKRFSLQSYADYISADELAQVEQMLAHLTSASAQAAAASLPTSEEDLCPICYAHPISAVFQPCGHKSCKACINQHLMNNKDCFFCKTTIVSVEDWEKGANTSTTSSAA
UniProt Q5EBL4: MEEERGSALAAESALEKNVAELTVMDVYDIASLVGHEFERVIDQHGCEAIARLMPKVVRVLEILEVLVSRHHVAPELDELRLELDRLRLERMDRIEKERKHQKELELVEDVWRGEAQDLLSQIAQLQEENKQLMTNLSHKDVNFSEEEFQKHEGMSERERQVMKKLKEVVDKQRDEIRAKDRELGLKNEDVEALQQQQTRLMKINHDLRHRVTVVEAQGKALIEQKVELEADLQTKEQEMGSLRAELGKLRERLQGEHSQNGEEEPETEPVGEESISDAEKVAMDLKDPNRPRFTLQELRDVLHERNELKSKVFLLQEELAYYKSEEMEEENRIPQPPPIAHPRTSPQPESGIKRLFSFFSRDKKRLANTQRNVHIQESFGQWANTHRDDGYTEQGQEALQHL
UniProt Q8IXW5, whole entry, looked up: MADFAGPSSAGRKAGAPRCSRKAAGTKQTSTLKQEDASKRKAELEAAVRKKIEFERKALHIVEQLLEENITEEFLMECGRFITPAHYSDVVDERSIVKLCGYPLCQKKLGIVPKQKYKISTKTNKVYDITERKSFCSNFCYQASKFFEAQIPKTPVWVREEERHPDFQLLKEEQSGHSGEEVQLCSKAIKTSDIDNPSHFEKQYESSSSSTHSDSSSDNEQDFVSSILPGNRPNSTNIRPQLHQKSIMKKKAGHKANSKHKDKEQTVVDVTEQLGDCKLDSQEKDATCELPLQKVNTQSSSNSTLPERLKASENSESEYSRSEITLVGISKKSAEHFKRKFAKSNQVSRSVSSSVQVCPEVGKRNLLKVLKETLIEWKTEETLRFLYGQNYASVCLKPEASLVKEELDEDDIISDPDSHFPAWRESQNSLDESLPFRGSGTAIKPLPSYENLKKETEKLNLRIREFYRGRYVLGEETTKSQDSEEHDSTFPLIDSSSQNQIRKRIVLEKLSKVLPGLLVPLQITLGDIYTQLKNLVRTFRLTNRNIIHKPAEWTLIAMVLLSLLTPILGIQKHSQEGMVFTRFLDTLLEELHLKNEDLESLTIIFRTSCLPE
UniProt Q9BV68: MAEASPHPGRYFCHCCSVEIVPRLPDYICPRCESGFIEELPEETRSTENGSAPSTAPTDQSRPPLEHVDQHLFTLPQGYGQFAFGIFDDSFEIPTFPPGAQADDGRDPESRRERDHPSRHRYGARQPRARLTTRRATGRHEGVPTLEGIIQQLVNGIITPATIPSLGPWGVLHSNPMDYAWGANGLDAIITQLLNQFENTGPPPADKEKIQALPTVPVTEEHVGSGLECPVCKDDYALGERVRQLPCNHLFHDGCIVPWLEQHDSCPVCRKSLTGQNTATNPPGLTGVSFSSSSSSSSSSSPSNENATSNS

Key:
Test in all cases: log2 fold change, soluble protein after heating vs DMSO (PISA); higher = thermal stabilisation; K562 lysate, 10 uM; active = over 0.2 and 3.5 SD of the protein, either way, in both replicates (recomputed)
[1] = compound: NCC(=O)Nc1ccc(-n2nc(C(F)(F)F)cc2-c2ccc3c(ccc4ccccc43)c2)cc1
Summary of the method: (§1)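 Log-two fold change in thermal stability relative to solvent controls is reported from duplicates. For each sample, crude K562 extract from dounce-homogenised pellets in PBS pH 7.4 with 1 mM MgCl2, at 1 mg/mL protein, was treated with 10 μM compound for 30 min. Aliquots heated for 3 min across 48°C-58°C were pooled, brought to 0.5% NP-40 at 4°C and cleared at 21,000xg for 90 min. The supernatant was quantified by TMTpro 16plex LC-MS/MS with channel sums equalised.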

vorinostat = compound: O=C(CCCCCCC(=O)Nc1ccccc1)NO [vorinostat]
Summary of the method: as §1

silmitasertib = compound: O=C(O)c1ccc2c(c1)nc(Nc1cccc(Cl)c1)c1ccncc12 [silmitasertib]
Summary of the method: as §1

[2] = compound: O=C1NC(=O)C(c2cnc3ccccn23)=C1c1cn2c3c(cc(F)cc13)CN(C(=O)N1CCCCC1)CC2
Summary of the method: as §1

entospletinib = compound: c1cn2cc(-c3ccc4cn[nH]c4c3)nc(Nc3ccc(N4CCOCC4)cc3)c2n1 [entospletinib]
Summary of the method: as §1

Target	log2 fold change [1]	log2 fold change (vorinostat)	log2 fold change (silmitasertib)	log2 fold change [2]	log2 fold change (entospletinib)
RIC8A (UniProt Q9NPQ8)	inactive: -0.002	inactive: -0.103	inactive: 0.035	inactive: 0.026	inactive: -0.007
RNF181 (UniProt Q9P0P0)	inactive: -0.014	inactive: 0.101	inactive: -0.019	inactive: -0.023	active: -0.24
RPL35 (UniProt P42766)	inactive: 0.007	inactive: 0.111	inactive: 0.035	inactive: 0.017	inactive: 0.048
RNF149 (UniProt Q8NC42)	inactive: 0.036	inactive: 0.098	inactive: 0.013	inactive: 0.015	–
RHOXF2B (UniProt P0C7M4)	inactive: -0.031	inactive: -0.38	inactive: 0.001	–	–
RNF187 (UniProt Q5TA31)	inactive: 0.071	inactive: -0.002	inactive: 0.02	inactive: 0.009	inactive: -0.12
RNF213, A0A0A0MTC1	inactive: 0.022	active: -0.381	inactive: 0.032	inactive: 0.007	inactive: 0.052
RNF214 (UniProt Q8ND24)	inactive: 0.016	inactive: -0.046	inactive: -0.016	inactive: 0.005	inactive: -0.034
RNH1 (UniProt P13489)	inactive: 0.023	inactive: 0.267	inactive: -0.015	inactive: 0.017	inactive: -0.023
RNF2 (UniProt Q99496)	inactive: -0.015	inactive: -0.037	inactive: 0.021	inactive: 0.008	inactive: -0.033
RPL3 (UniProt P39023)	inactive: -0.002	inactive: 0.064	inactive: 0.011	inactive: 0.01	inactive: 0.009
RINT1 (UniProt Q6NUQ1)	inactive: 0.078	active: -0.321	inactive: 0.038	inactive: 0.034	inactive: -0.089
RNF170 (UniProt Q96K19)	inactive: -0.003	inactive: 0.004	inactive: 0.169	–	–
ROMO1 (UniProt P60602)	inactive: -0.049	inactive: 0.063	inactive: -0.012	inactive: -0.067	inactive: -0.06
RPF2 (UniProt Q9H7B2)	inactive: -0.037	inactive: -0.017	inactive: -0.101	inactive: 0.03	inactive: -0.022
RNASEL (UniProt Q05823)	inactive: -0.005	active: -0.298	inactive: 0.055	inactive: -0.021	inactive: -0.023
RNF40 (UniProt O75150)	inactive: 0.015	active: -0.237	inactive: 0.032	inactive: -0.007	inactive: -0.022
RPL13A (UniProt P40429)	inactive: 0.01	inactive: 0.075	inactive: 0.024	inactive: -0.043	inactive: 0.014
RO60 (UniProt P10155)	inactive: -0.017	inactive: 0.08	inactive: -0.024	inactive: -0.015	inactive: 0.008
RNPEPL1 (UniProt Q9HAU8)	inactive: -0.196	inactive: -0.098	inactive: -0.15	inactive: -0.061	–
RHOU (UniProt Q7L0Q8)	inactive: 0.019	inactive: -0.116	inactive: 0.058	inactive: -0.039	inactive: 0.024
RIC1 (UniProt Q4ADV7)	inactive: -0.053	inactive: -0.193	inactive: 0.057	inactive: -0.06	inactive: 0.045
RMND5B (UniProt Q96G75)	inactive: 0.036	–	–	–	–
RHOB (UniProt P62745)	inactive: 0.041	inactive: 0.056	inactive: 0.038	inactive: 0.082	inactive: -0.048
RNF113A (UniProt O15541)	inactive: 0.009	inactive: -0.02	inactive: -0.03	inactive: -0.004	inactive: 0.02
RNPS1 (UniProt Q15287)	inactive: -0.014	inactive: 0.02	inactive: -0.093	inactive: -0.012	inactive: 0.009
RNF139 (UniProt Q8WU17)	inactive: -0.026	inactive: -0.038	inactive: 0.012	inactive: -0.027	–
RIF1 (UniProt Q5UIP0)	inactive: 0.003	inactive: -0.204	inactive: 0	inactive: 0.012	inactive: -0.037

Whole records as entered above. Values in the order: log2 fold change [1]	log2 fold change (vorinostat)	log2 fold change (silmitasertib)	log2 fold change [2]	log2 fold change (entospletinib)
RPL35 (UniProt P42766) in the list: inactive: 0.007	inactive: 0.111	inactive: 0.035	inactive: 0.017	inactive: 0.048
RPL13A (UniProt P40429) in the list: inactive: 0.01	inactive: 0.075	inactive: 0.024	inactive: -0.043	inactive: 0.014
RNH1 (UniProt P13489) in the list: inactive: 0.023	inactive: 0.267	inactive: -0.015	inactive: 0.017	inactive: -0.023

Next entries follow:

Target	log2 fold change [1]	log2 fold change (vorinostat)	log2 fold change (silmitasertib)	log2 fold change [2]	log2 fold change (entospletinib)
RIPOR1 isoform 4 (UniProt Q6ZS17)	inactive: -0.005	inactive: -0.206	inactive: 0.103	inactive: -0.033	inactive: -0.173
RPA3 (UniProt P35244)	inactive: -0.118	inactive: 0.097	inactive: -0.011	inactive: -0.032	inactive: 0.032
RPL36 (UniProt Q9Y3U8)	inactive: 0.039	inactive: 0.103	inactive: -0.003	inactive: 0.039	inactive: 0.002
RPL13 (UniProt P26373)	inactive: 0.002	inactive: 0.129	inactive: 0.016	inactive: 0.011	inactive: 0
RPL14 (UniProt P50914)	inactive: -0.001	inactive: -0.122	inactive: 0.038	inactive: 0.086	inactive: 0.026
RP9 (UniProt Q8TA86)	inactive: -0.098	inactive: 0.242	inactive: -0.003	inactive: -0.072	–
RPL19 (UniProt P84098)	inactive: -0.041	inactive: 0.069	inactive: 0.031	inactive: 0.036	inactive: 0.007
RNF141 (UniProt Q8WVD5)	inactive: -0.158	inactive: -0.112	inactive: -0.047	inactive: 0.039	inactive: 0.147
RMC1 (UniProt Q96DM3)	inactive: 0.008	active: -0.391	inactive: 0.017	inactive: -0.013	inactive: 0.037
RNPEP (UniProt Q9H4A4)	inactive: -0.01	inactive: 0.069	inactive: 0.005	inactive: -0.018	inactive: 0.02
RIPK1 (UniProt Q13546)	inactive: -0.021	active: -0.292	inactive: -0.037	inactive: -0.013	inactive: 0.011
RMI2 (UniProt Q96E14)	inactive: -0.008	active: -0.586	inactive: 0.092	inactive: 0.041	inactive: -0.01
RNASET2 (UniProt O00584)	inactive: -0.011	inactive: 0.111	inactive: -0.018	inactive: -0.019	inactive: 0.015
RPL23 (UniProt P62829)	inactive: 0.003	inactive: 0.022	inactive: -0.005	inactive: 0.018	inactive: 0.005
RIDA (UniProt P52758)	inactive: -0.094	inactive: 0.13	inactive: -0.011	inactive: -0.057	inactive: -0.015
RNF123 (UniProt Q5XPI4)	inactive: 0.014	active: -0.385	inactive: -0.016	inactive: -0.002	inactive: 0
RIOX1 (UniProt Q9H6W3)	inactive: 0.04	inactive: -0.147	inactive: -0.101	inactive: -0.003	inactive: -0.04
RPA2 isoform 3 (UniProt P15927)	inactive: 0.006	inactive: 0.12	inactive: -0.012	inactive: -0.015	inactive: 0.041
RNASEH2B (UniProt Q5TBB1)	inactive: -0.016	active: -0.377	inactive: 0.054	inactive: -0.064	inactive: 0.011
RNASE4 (UniProt P34096)	inactive: -0.055	inactive: 0.151	inactive: -0.049	inactive: -0.16	inactive: -0.05
RPL27A (UniProt P46776)	inactive: -0.002	inactive: -0.009	inactive: 0.039	inactive: 0.021	inactive: 0.012
RIPK2 (UniProt O43353)	inactive: 0	inactive: -0.054	inactive: -0.023	inactive: 0.049	inactive: -0.06
RILPL1 (UniProt Q5EBL4)	inactive: 0.026	inactive: 0.073	inactive: 0.037	inactive: -0.01	inactive: 0.038
RPAP2 (UniProt Q8IXW5)	inactive: 0.001	inactive: -0.073	inactive: -0.044	inactive: -0.042	inactive: 0.006
RHOC (UniProt P08134)	inactive: -0.046	inactive: -0.042	inactive: 0.078	inactive: -0.007	inactive: 0.027
RNF126 (UniProt Q9BV68)	inactive: -0.164	inactive: 0.064	inactive: 0.196	inactive: 0.064	inactive: -0.047
RPL34 (UniProt P49207)	inactive: 0.006	inactive: 0.097	inactive: 0.027	inactive: -0.026	inactive: -0.016
